Experimental data taken from paper PMC3258218.
Results are given in words; binding and its absence hold for the method and conditions named. In cells and extracts the contact can be indirect. Some results given as binding are weak or reduced against the parent protein; the word gives no strength.

By UniProt entry, the sequences of proteins in these tests, tags left out. Residues count along the entry.
UniProt P9WPC5: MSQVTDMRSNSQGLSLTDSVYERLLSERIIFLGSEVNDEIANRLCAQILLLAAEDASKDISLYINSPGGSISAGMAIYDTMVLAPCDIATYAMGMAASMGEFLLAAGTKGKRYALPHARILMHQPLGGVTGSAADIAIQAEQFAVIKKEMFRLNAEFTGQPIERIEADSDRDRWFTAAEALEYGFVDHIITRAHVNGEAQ
UniProt P9WPC3: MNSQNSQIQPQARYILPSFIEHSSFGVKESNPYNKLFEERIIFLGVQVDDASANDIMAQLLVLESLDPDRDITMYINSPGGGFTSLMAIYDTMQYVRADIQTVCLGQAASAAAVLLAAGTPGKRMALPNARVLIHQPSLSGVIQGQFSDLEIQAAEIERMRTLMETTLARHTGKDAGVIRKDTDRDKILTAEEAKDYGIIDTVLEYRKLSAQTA
UniProt P0A6G7, residues 15-207: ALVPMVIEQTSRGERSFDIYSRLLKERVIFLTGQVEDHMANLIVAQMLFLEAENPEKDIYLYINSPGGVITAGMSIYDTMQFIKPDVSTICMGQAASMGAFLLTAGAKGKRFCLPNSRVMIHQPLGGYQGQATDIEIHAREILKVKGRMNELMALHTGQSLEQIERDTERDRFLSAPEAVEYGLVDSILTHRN

Tests used:
[1] = target: Mycobacterium tuberculosis ClpP1 with a C-terminal (His)6 tag (Mycobacterium tuberculosis) (UniProt P9WPC5); assay: pull-down
[2] = target: Mycobacterium tuberculosis ClpP2 with a C-terminal (His)6 tag (Mycobacterium tuberculosis) (UniProt P9WPC3); assay: pull-down

| Substance | binding [1] | binding [2] |
| --- | --- | --- |
| untagged E. coli ClpP (recombinant, co-produced with MTB ClpP1(His)6 or ClpP2(His)6) (from UniProt P0A6G7 15-207) (enzyme) | binds | binds |
| endogenous E. coli ClpP of BL21(DE3) cells (from UniProt P0A6G7 15-207) (enzyme) | binds | binds |
